# Assay results: the supplement of paper PMC8728848
# This is one part of the list.
# Key:
# Assay in all cases: glycan array binding signal (z-score within array); higher = stronger binding
# Conditions in all cases: glycan notation: IUPAC condensed, linker removed
# [1] = biological target: Neu5Ac(a2-6)GlcNAc(b1-4)GlcNAc(b1-4)GlcNAc
# Method in brief: (§1)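 Arrays were curated from the Consortium for Functional Glycomics database, 3228 in total, and kept only where the protein sequence was available. Binding is expressed as a within-array Z-score. This score was averaged across arrays of the same protein sequence at different concentrations or buffers and across linkers, and negative values can be read as non-binding.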
# Neu5Ac(a2-8)Neu5Ac = biological target: Neu5Ac(a2-8)Neu5Ac
# Method in brief: as §1
# [2] = biological target: Neu5Ac(a2-8)Neu5Ac(a2-3)Gal(b1-3)GalNAc(b1-4)[Neu5Ac(a2-3)]Gal(b1-4)Glc
# Method in brief: as §1
# [3] = biological target: Neu5Ac(a2-8)Neu5Ac(a2-3)Gal(b1-3)GalNAc(b1-4)[Neu5Ac(a2-8)Neu5Ac(a2-3)]Gal(b1-4)Glc
# Method in brief: as §1
# [4] = biological target: Neu5Ac(a2-8)Neu5Ac(a2-3)Gal(b1-4)Glc
# Method in brief: as §1
# [5] = biological target: Neu5Ac(a2-8)Neu5Ac(a2-3)Gal(b1-4)GlcNAc
# Method in brief: as §1
# [6] = biological target: Neu5Ac(a2-8)Neu5Ac(a2-3)[Gal(b1-3)GalNAc(b1-4)]Gal(b1-4)Glc
# Method in brief: as §1
# [7] = biological target: Neu5Ac(a2-8)Neu5Ac(a2-3)[GalNAc(b1-4)]Gal(b1-4)Glc
# Method in brief: as §1
# [8] = biological target: Neu5Ac(a2-8)Neu5Ac(a2-8)Neu5Ac
# Method in brief: as §1
# [9] = biological target: Neu5Ac(a2-8)Neu5Ac(a2-8)Neu5Ac(a2-3)Gal(b1-4)Glc
# Method in brief: as §1
# [10] = biological target: Neu5Ac(a2-8)Neu5Ac(a2-8)Neu5Ac(a2-3)[Gal(b1-3)GalNAc(b1-4)]Gal(b1-4)Glc
# Method in brief: as §1
# [11] = biological target: Neu5Ac(a2-8)Neu5Ac(a2-8)Neu5Ac(a2-3)[GalNAc(b1-4)]Gal(b1-4)Glc
# Method in brief: as §1
# [12] = biological target: Neu5Ac(a2-8)Neu5Ac(a2-8)Neu5Ac(a2-8)Neu5Ac(a2-3)[GalNAc(b1-4)]Gal(b1-4)Glc
# Method in brief: as §1
# [13] = biological target: Neu5Ac(a2-8)Neu5Gc(a2-3)Gal(b1-4)GlcNAc
# Method in brief: as §1
# [14] = biological target: Neu5Ac(b2-6)Gal(b1-4)GlcNAc
# Method in brief: as §1
# Neu5Ac(b2-6)GalNAc = biological target: Neu5Ac(b2-6)GalNAc
# Method in brief: as §1
# [15] = biological target: Neu5Ac9Ac(a2-3)Gal(b1-3)GlcNAc
# Method in brief: as §1
# [16] = biological target: Neu5Ac9Ac(a2-3)Gal(b1-4)GlcNAc
# Method in brief: as §1
# [17] = biological target: Neu5Ac9Ac(a2-6)Gal(b1-4)GlcNAc
# Method in brief: as §1
# [18] = biological target: Neu5Gc(a2-3)Gal(b1-3)GlcNAc
# Method in brief: as §1
# [19] = biological target: Neu5Gc(a2-3)Gal(b1-3)[Fuc(a1-4)]GlcNAc
# Method in brief: as §1
# Neu5Gc(a2-3)Gal(b1-4)Glc = biological target: Neu5Gc(a2-3)Gal(b1-4)Glc
# Method in brief: as §1
# [20] = biological target: Neu5Gc(a2-3)Gal(b1-4)GlcNAc
# Method in brief: as §1
# [21] = biological target: Neu5Gc(a2-3)Gal(b1-4)GlcNAc(b1-3)Gal(b1-4)GlcNAc(b1-2)Man(a1-3)[Neu5Gc(a2-3)Gal(b1-4)GlcNAc(b1-3)Gal(b1-4)GlcNAc(b1-2)Man(a1-6)]Man(b1-4)GlcNAc(b1-4)GlcNAc
# Method in brief: as §1
# [22] = biological target: Neu5Gc(a2-3)Gal(b1-4)[Fuc(a1-3)]GlcNAc
# Method in brief: as §1
# [23] = biological target: Neu5Gc(a2-6)Gal(b1-4)GlcNAc
# Method in brief: as §1
# Neu5Gc(a2-6)GalNAc = biological target: Neu5Gc(a2-6)GalNAc
# Method in brief: as §1
# [24] = biological target: Neu5Gc(a2-8)Neu5Ac(a2-3)Gal(b1-4)GlcNAc
# Method in brief: as §1
# [25] = biological target: Neu5Gc(a2-8)Neu5Gc(a2-3)Gal(b1-4)GlcNAc
# Method in brief: as §1
# [26] = biological target: Neu5Gc(a2-8)Neu5Gc(a2-3)Gal(b1-4)GlcNAc(b1-3)Gal(b1-4)GlcNAc
# Method in brief: as §1
# [27] = biological target: Neu5Gc(a2-8)Neu5Gc(a2-6)Gal(b1-4)GlcNAc
# Method in brief: as §1
# [28] = biological target: Neu5Gc(b2-6)Gal(b1-4)GlcNAc
# Method in brief: as §1
binder,measurement,setting,value
LF82 (Escherichia coli) (protein) ADWGPCRTASGDPFIFVTSFTKNIQNPTDNVTGQTYPDFYQWALGDKYSGVCECPSPNPTEARPTLYKTESTLAAGHNSTYFKITNNLEVSTRVYIANVGNVQVPFINKSNSQPGRECDQPTFGWTTGSKGQLSLYIAKPFVGEQNIPQTIIVSVFGTKKENVYSSVPISQVLLSGKVTVTQGCELAAGTSLDIDFGEYQAHDFKGRTGQPPQNVQKIQKELTFNCTNISDGVHIYLSLEGTPNAAYPSAISLGNADVGAVIEDGKGNILKPNDSNSLLEMNPGSLYEYVKRKVTTTITAYPVSTTGKLPAAGDYSGVATMHVELDGGGGGGGGGGATTDLGAKGTLKFSLKISQGHHHHHH,glycan array binding signal (z-score),[1],2.4
same,glycan array binding signal (z-score),Neu5Ac(a2-8)Neu5Ac,-0.442
same,glycan array binding signal (z-score),[2],1.07
same,glycan array binding signal (z-score),[3],-0.243
same,glycan array binding signal (z-score),[4],-1.24
same,glycan array binding signal (z-score),[5],0.061
same,glycan array binding signal (z-score),[6],-0.278
same,glycan array binding signal (z-score),[7],-0.701
same,glycan array binding signal (z-score),[8],-0.079
same,glycan array binding signal (z-score),[9],0.664
same,glycan array binding signal (z-score),[10],1.41
same,glycan array binding signal (z-score),[11],-0.553
same,glycan array binding signal (z-score),[12],2.59
same,glycan array binding signal (z-score),[13],-0.211
same,glycan array binding signal (z-score),[14],-1.23
same,glycan array binding signal (z-score),Neu5Ac(b2-6)GalNAc,-0.437
same,glycan array binding signal (z-score),[15],0.57
same,glycan array binding signal (z-score),[16],-0.415
same,glycan array binding signal (z-score),[17],-0.823
same,glycan array binding signal (z-score),[18],3.85
same,glycan array binding signal (z-score),[19],-0.11
same,glycan array binding signal (z-score),Neu5Gc(a2-3)Gal(b1-4)Glc,0.406
same,glycan array binding signal (z-score),[20],0.258
same,glycan array binding signal (z-score),[21],-0.467
same,glycan array binding signal (z-score),[22],0.971
same,glycan array binding signal (z-score),[23],1.06
same,glycan array binding signal (z-score),Neu5Gc(a2-6)GalNAc,1.03
same,glycan array binding signal (z-score),[24],0.958
same,glycan array binding signal (z-score),[25],-0.425
same,glycan array binding signal (z-score),[26],-0.48
same,glycan array binding signal (z-score),[27],-0.409
same,glycan array binding signal (z-score),[28],-0.769

# Given as tab-separated lines: part of the list above.
binder	measurement	setting	value
LF82 (Escherichia coli) (protein) ADWGPCRTASGDPFIFVTSFTKNIQNPTDNVTGQTYPDFYQWALGDKYSGVCECPSPNPTEARPTLYKTESTLAAGHNSTYFKITNNLEVSTRVYIANVGNVQVPFINKSNSQPGRECDQPTFGWTTGSKGQLSLYIAKPFVGEQNIPQTIIVSVFGTKKENVYSSVPISQVLLSGKVTVTQGCELAAGTSLDIDFGEYQAHDFKGRTGQPPQNVQKIQKELTFNCTNISDGVHIYLSLEGTPNAAYPSAISLGNADVGAVIEDGKGNILKPNDSNSLLEMNPGSLYEYVKRKVTTTITAYPVSTTGKLPAAGDYSGVATMHVELDGGGGGGGGGGATTDLGAKGTLKFSLKISQGHHHHHH	glycan array binding signal (z-score)	[12]	2.59
same	glycan array binding signal (z-score)	[13]	-0.211
